Assay results published in the supplement of paper PMC11732987, “Enantioselective OTUD7B fragment discovery through chemoproteomics screening and high-throughput optimisation” (Communications Chemistry, 2025).
This is one part of the list. The data scatter; read single values as rough.

Protein sequences, listed by entry. Tags and fused reporters are not part of them. Lines headed by an entry give the natural chain unless they say otherwise; changes in a name come on top. Residues count along the entry.
UniProt Q96HI0: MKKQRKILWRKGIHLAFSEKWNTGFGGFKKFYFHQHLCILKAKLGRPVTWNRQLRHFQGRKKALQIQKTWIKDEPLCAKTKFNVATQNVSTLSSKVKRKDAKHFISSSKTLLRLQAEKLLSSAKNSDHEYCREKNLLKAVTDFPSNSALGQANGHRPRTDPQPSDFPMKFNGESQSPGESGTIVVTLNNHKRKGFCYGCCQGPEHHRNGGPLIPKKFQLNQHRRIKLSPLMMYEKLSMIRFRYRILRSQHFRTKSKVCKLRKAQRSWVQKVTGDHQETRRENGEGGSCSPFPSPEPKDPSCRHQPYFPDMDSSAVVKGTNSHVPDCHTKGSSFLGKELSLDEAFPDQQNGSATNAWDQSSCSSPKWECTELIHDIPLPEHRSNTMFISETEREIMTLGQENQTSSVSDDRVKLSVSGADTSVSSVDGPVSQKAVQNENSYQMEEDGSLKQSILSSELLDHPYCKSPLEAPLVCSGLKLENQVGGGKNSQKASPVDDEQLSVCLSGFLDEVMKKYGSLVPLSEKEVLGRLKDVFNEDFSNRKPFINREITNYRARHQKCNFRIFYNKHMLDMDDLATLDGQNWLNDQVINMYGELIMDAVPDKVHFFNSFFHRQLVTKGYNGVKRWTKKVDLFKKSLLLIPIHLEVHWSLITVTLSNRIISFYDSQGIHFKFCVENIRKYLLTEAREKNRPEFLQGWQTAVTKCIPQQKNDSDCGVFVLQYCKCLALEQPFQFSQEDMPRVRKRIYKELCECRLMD
UniProt Q0VDG4: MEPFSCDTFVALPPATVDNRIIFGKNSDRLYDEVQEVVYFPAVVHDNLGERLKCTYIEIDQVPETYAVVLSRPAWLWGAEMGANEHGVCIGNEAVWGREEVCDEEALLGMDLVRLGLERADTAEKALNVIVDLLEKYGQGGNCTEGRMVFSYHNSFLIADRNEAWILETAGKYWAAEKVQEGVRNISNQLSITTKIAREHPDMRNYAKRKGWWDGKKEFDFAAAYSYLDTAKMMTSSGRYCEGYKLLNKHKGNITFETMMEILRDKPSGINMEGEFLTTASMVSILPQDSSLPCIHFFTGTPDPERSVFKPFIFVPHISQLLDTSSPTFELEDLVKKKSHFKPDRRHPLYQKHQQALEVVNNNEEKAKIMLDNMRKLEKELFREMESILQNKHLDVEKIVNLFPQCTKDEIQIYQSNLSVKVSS
UniProt Q86VW0, 614-639: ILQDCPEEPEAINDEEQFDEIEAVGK
UniProt Q9UHJ6: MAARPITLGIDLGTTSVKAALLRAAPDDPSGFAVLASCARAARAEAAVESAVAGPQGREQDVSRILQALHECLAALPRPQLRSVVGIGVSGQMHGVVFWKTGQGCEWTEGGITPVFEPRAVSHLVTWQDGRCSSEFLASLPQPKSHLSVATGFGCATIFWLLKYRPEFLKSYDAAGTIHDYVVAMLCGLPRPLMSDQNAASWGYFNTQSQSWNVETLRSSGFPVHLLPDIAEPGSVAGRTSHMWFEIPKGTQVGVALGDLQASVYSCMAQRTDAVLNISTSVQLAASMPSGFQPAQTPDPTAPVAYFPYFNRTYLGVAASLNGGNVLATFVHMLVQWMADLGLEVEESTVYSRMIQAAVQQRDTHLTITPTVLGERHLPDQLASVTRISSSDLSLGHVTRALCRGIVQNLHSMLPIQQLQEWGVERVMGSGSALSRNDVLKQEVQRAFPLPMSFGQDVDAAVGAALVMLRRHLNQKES
UniProt Q96IW7, 12-34: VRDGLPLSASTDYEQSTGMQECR
UniProt Q9Y3L3, 325-349: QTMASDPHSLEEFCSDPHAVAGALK
UniProt A3KN83: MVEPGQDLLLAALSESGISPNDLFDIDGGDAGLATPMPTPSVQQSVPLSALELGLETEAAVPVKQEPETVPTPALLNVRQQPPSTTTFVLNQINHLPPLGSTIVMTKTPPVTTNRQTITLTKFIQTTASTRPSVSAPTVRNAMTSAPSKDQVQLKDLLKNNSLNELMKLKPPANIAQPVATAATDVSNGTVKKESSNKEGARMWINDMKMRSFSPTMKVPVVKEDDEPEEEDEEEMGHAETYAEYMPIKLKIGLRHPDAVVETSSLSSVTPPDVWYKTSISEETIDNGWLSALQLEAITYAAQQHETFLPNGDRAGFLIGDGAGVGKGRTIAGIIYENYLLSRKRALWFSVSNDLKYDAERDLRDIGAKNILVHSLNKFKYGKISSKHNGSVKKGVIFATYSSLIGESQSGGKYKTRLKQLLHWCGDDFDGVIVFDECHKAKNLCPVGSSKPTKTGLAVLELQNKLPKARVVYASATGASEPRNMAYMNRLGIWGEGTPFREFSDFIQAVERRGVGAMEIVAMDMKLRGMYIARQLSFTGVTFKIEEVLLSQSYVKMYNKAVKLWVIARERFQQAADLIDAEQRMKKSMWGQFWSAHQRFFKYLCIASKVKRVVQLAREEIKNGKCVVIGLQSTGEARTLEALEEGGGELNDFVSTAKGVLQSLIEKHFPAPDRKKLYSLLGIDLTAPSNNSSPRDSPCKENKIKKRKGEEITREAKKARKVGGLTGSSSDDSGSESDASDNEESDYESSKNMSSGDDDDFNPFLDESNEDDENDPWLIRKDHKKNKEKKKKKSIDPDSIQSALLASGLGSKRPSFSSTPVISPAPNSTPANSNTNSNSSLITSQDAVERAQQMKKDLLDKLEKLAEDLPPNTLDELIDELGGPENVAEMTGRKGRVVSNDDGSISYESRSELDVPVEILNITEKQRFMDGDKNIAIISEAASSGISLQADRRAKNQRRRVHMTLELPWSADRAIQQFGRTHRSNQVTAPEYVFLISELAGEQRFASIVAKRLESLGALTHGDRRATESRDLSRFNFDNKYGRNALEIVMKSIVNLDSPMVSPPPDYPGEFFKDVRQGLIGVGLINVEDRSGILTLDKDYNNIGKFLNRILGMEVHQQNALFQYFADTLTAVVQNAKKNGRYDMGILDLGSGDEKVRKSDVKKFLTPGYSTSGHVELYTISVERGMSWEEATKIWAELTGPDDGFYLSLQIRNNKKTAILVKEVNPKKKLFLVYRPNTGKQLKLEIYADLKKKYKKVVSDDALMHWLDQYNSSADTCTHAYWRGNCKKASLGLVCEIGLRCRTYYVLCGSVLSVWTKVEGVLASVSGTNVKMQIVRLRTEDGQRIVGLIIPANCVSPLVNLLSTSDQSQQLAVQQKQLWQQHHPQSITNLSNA
UniProt Q9BYW2: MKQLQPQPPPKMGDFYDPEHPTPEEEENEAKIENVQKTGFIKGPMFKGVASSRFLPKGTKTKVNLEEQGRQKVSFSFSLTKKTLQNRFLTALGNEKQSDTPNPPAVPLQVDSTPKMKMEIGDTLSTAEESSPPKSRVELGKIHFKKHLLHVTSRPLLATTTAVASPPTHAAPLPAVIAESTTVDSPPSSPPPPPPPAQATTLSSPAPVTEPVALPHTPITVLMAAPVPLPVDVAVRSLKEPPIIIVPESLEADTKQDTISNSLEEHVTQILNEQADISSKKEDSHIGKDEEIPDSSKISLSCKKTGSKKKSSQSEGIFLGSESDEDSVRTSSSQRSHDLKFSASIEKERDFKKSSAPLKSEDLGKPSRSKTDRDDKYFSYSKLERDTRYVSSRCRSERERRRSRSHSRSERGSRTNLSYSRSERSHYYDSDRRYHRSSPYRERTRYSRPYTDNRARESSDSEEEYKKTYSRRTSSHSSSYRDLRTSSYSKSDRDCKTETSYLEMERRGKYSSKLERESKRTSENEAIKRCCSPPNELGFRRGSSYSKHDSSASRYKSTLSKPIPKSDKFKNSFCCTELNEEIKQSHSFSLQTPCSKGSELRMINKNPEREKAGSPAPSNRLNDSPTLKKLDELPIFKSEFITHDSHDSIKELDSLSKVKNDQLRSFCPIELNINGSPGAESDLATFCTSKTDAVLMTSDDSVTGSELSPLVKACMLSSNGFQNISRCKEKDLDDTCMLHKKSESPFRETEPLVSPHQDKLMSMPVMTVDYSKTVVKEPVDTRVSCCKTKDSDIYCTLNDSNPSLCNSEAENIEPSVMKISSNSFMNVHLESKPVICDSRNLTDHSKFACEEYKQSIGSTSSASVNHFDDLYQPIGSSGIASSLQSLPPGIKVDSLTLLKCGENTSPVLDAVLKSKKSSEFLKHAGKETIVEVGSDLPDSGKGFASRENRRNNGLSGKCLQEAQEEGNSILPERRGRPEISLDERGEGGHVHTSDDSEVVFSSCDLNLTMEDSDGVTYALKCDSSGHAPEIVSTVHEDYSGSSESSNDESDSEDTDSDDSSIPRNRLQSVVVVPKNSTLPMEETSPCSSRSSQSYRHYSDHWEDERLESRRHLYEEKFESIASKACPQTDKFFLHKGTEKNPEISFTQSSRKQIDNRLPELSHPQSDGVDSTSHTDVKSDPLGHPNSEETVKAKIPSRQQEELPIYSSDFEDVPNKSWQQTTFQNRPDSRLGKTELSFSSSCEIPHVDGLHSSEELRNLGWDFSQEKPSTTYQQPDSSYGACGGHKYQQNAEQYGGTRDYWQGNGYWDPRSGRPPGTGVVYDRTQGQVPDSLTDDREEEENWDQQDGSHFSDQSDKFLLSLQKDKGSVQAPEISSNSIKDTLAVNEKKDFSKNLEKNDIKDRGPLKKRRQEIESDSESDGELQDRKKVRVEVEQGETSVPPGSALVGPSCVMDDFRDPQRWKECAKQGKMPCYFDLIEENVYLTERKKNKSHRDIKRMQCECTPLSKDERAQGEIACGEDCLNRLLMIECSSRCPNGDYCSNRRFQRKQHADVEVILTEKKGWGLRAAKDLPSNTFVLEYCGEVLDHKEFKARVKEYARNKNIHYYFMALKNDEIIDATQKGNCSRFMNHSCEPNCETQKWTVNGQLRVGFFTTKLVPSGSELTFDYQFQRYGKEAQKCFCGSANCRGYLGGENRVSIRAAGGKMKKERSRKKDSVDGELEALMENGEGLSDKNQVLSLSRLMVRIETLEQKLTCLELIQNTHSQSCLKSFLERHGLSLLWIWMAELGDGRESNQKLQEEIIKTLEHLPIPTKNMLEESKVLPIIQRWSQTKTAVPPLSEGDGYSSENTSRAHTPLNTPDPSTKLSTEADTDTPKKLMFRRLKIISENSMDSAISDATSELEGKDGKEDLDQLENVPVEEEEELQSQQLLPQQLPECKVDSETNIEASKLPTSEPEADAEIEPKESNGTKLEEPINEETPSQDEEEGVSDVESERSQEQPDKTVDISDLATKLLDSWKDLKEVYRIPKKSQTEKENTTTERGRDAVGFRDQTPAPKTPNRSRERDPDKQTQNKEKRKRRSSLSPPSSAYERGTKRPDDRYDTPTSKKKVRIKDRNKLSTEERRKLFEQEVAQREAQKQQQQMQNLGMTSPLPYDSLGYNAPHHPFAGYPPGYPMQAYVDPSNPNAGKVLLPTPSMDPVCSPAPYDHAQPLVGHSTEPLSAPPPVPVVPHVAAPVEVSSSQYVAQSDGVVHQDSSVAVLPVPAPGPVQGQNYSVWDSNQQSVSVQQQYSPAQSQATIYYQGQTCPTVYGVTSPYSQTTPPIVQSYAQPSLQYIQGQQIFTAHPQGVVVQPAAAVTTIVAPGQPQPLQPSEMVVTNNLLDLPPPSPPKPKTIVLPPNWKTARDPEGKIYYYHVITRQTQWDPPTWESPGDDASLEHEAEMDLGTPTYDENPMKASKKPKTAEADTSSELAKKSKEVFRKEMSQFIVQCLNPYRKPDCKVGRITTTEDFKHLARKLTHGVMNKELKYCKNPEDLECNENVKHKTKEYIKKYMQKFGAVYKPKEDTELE
UniProt Q9H0F6, 129-154: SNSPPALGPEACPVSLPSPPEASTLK
UniProt O15304: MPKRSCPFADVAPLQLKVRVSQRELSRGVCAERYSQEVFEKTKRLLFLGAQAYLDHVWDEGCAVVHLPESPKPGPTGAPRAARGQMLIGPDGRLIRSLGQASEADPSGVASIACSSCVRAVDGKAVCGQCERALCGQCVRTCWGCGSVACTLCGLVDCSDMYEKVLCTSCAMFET
UniProt Q8WU76: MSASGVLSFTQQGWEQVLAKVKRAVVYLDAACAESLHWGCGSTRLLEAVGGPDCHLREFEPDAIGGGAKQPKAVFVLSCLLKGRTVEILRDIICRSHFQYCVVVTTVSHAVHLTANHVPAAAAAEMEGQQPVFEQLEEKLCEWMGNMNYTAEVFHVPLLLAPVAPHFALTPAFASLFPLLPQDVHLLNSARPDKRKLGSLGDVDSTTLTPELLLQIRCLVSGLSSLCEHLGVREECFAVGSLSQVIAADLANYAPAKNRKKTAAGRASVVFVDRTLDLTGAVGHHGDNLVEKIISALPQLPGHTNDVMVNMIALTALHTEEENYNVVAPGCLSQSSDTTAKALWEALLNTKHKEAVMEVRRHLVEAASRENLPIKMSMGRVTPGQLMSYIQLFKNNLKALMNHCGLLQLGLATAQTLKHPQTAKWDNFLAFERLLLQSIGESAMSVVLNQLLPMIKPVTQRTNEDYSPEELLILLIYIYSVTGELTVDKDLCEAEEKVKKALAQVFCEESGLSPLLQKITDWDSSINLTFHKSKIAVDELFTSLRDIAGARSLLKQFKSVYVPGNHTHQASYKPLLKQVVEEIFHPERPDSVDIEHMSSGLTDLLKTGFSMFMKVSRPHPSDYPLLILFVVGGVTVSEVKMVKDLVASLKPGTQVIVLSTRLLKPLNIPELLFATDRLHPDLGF
UniProt Q93073, 880-900: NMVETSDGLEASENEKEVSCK

Legend:
[1] = compound: ClCC(=O)N[C@@H]1CCCc2ccccc12; assay: log2 mean competition ratio of IA-DTB cysteine labelling (DMSO/compound) (log2 ratio); higher = stronger cysteine engagement by compound; conditions: treatment time: 4 h, cell line lysate: HEK293T
Experimental: (§1)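 IA-DTB competitive cysteine chemoproteomics in HEK293T RIPA lysate. Lysates were treated with compound 29 or 30 at 50 or 200 µM for 4 h, then IA-DTB (500 µM, 1 h), trypsin-digested, NeutrAvidin-enriched and analysed by diaPASEF. Competition ratio = intensity DMSO / intensity compound (n=4 treated, n=64 DMSO); binding: mean log2 CR ≥ 1 and p ≤ 0.05 plus QC filters. Target is the cysteine site.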

[2] = compound: ClCC(=O)N[C@H]1CCCc2ccccc12; assay: as above; conditions: treatment time: 4 h, cell line lysate: HEK293T
Experimental: as §1

Target | log2 mean competition ratio ([1]; 50 µM) | log2 mean competition ratio ([1]; 200 µM) | log2 mean competition ratio ([2]; 50 µM) | log2 mean competition ratio ([2]; 200 µM)
SETD7 C200 (UniProt Q8WTS6) | 0.294 | 0.119 | 0.605 | -0.384
SCLY C22 (UniProt Q96I15) | -0.0695 | 0.115 | -0.146 | 0.0724
SHTN1 C565 (UniProt A0MZ66) | 0.0909 | 0.112 | 0.445 | 0.335
SH3RF3 C497 | -0.131 | 0.0544 | -0.358 | 0.566
SEC24B C555 (UniProt O95487) | 0.0832 | 0.0416 | -0.0822 | 0.0655
SENP5 C463 (UniProt Q96HI0) | 0.00375 | -0.0731 | -0.45 | -0.0572
SAFB C448 (UniProt Q15424) | 0.424 | -0.031 | 0.61 | 0.0315
SESN1 C355 (UniProt Q9Y6P5) | 0.256 | 0.0464 | -0.269 | -0.0551
SAT2 C14 (UniProt Q96F10) | -0.264 | 0.346 | -0.113 | 0.298
SCRN3 C102 (UniProt Q0VDG4) | -0.0696 | -0.0356 | 0.383 | -0.0133
SCAF11 C1020 (UniProt Q99590) | 0.117 | -0.505 | -0.172 | -0.208
SHB C224 (UniProt Q15464) | 0.181 | -0.0501 | 0.0966 | -0.0403
SFMBT1 C511 | -0.132 | 0.0798 | 0.0626 | 0.113
SGO2 C954 (UniProt Q562F6) | -0.358 | 0.192 | 0.14 | 0.449
SEPTIN10 C22 (UniProt Q9P0V9) | 0.101 | -0.0556 | -0.182 | -0.239
SEC63 C366 (UniProt Q9UGP8) | -0.0526 | 0.015 | -0.331 | 0.0686
SEC23IP C467 (UniProt Q9Y6Y8) | 0.125 | -0.16 | -0.271 | -0.166
SHMT2 C343 | -0.216 | -0.0984 | 0.0776 | -0.0273
SBF1 C839 (UniProt O95248) | -0.0809 | -0.227 | 0.441 | -0.272
SEC23B C180 (UniProt Q15437) | -0.2 | -0.0225 | -0.549 | -0.128
SHCBP1 C353 (UniProt Q8NEM2) | 0.36 | 0.0426 | -0.114 | -0.181
SESTD1 C618 (UniProt Q86VW0) | -0.253 | -0.168 | -0.821 | -0.279
SH3RF1 C107 (UniProt Q7Z6J0) | 0.169 | -0.111 | 0.0351 | 0.152
SHPK C132 (UniProt Q9UHJ6) | -0.13 | -0.0776 | -0.201 | 0.0679
SFXN2 C290 (UniProt Q96NB2) | -0.112 | 0.13 | -0.593 | 0.324

Target | log2 mean competition ratio ([1]; 50 µM) | log2 mean competition ratio ([1]; 200 µM) | log2 mean competition ratio ([2]; 50 µM) | log2 mean competition ratio ([2]; 200 µM)
SESTD1 C363 (UniProt Q86VW0) | 0.304 | 0.101 | 0.281 | 0.221
SANBR C164 | -0.408 | 0.0916 | -0.359 | 0.164
SEC22A C33 (UniProt Q96IW7) | 0.201 | 0.692 | 0.592 | 0.165
SCARF2 C295 | 0.214 | 0.198 | -0.0493 | 0.415
SH3BP1 C338 (UniProt Q9Y3L3) | -0.608 | -0.01 | 0.265 | -0.0603
SBNO1 C445 (UniProt A3KN83) | 0.255 | -0.191 | 0.254 | -0.265
SCAF1 C950 (UniProt Q9H7N4) | -0.157 | 0.0605 | 0.027 | 0.151
SGSM3 C448 (UniProt Q96HU1) | -0.215 | 0.494 | -0.213 | 0.0203
SAE1 C342 | -0.105 | -0.108 | -0.0243 | -0.0548
SHB C215 (UniProt Q15464) | 0.000597 | 0.0341 | 0.227 | 0.287
SECISBP2 C291 (UniProt Q96T21) | -0.131 | 0.116 | 0.114 | 0.277
SENP5 C326 (UniProt Q96HI0) | 0.376 | 0.0774 | 0.0196 | -0.163
SIKE1 C164 (UniProt Q9BRV8) | 0.106 | -0.0563 | 0.401 | 0.227
SDHA C89 (UniProt P31040) | 0.323 | 0.737 | 0.00787 | 0.272
SEC62 C55 (UniProt Q99442) | -0.214 | -0.246 | 0.341 | -0.0315
SEPHS1 C71 (UniProt P49903) | -0.0921 | 0.0587 | -0.315 | -0.0151
SERPINB6 C370 | 0.148 | -0.281 | 0.345 | -0.252
SAP30 C184 (UniProt O75446) | -0.000212 | 0.11 | -0.162 | 0.0414
SGF29 C74 (UniProt Q96ES7) | -0.265 | 0.613 | 0.0383 | 0.202
SEPTIN6 C432 (UniProt Q14141) | 0.104 | -0.0208 | 0.287 | 0.141
SEC31A C644 | 0.117 | -0.553 | 0.392 | -0.406
SAMD1 C383 (UniProt Q6SPF0) | 0.392 | -0.00984 | 0.132 | 0.0386
SERINC3 C72 (UniProt Q13530) | -0.0986 | -0.0056 | -0.359 | -0.0174
SELENOO C219 (UniProt Q9BVL4) | 0.159 | 0.00184 | 0.0546 | -0.14
SEC13 C299 (UniProt P55735) | -0.401 | -0.294 | -0.117 | -0.256

Target | log2 mean competition ratio ([1]; 50 µM) | log2 mean competition ratio ([1]; 200 µM) | log2 mean competition ratio ([2]; 50 µM) | log2 mean competition ratio ([2]; 200 µM)
SETD2 C849 (UniProt Q9BYW2) | -0.591 | 0.00807 | -0.0923 | -0.308
SESN2 C8 (UniProt P58004) | -0.263 | 0.241 | -0.101 | 0.0699
SASH1 C720 (UniProt O94885) | 0.146 | -0.153 | -0.211 | 0.0874
SCRN3 C143 (UniProt Q0VDG4) | 0.313 | 0.884 | 0.203 | 0.949
SAMHD1 C341 (UniProt Q9Y3Z3) | 0.12 | 0.166 | -0.443 | 0.127
SIPA1L3 C407 | -0.121 | 0.226 | -0.41 | 0.144
SDSL C38 (UniProt Q96GA7) | 0.0276 | 0.157 | 0.0135 | 0.152
SENP2 C283 (UniProt Q9HC62) | 0.0838 | 0.235 | 0.137 | 0.216
SHARPIN C140 (UniProt Q9H0F6) | -0.242 | -0.213 | 0.266 | -0.199
SF3B3 C1054 (UniProt Q15393) | 0.397 | -0.266 | 0.0788 | -0.362
SERPINB9 C370 (UniProt P50453) | 0.00197 | -0.168 | 0.316 | -0.147
SIVA1 C6 (UniProt O15304) | 1.06 | 0.891 | 0.724 | 1.16
SEC24D C853 (UniProt O94855) | 0.045 | -0.114 | -0.668 | -0.293
SHROOM3 C508 | 0.207 | 0.218 | 0.0263 | 0.232
SCFD2 C54 (UniProt Q8WU76) | 0.26 | 0.045 | 0.155 | -0.0203
SETD1A C1514 (UniProt O15047) | 0.129 | -0.0345 | -0.146 | -0.0727
SIDT2 C335 (UniProt Q8NBJ9) | 0.333 | -0.221 | -0.152 | -0.117
SECISBP2L C899 (UniProt Q93073) | -0.0138 | -0.173 | 0.689 | -0.0518
SHMT2 C241 | -0.0765 | 0.151 | -0.154 | -0.00433
SGPP1 C399 (UniProt Q9BX95) | 0.298 | 0.292 | 0.338 | 0.348
SEC23B C74 (UniProt Q15437) | 0.152 | -0.0886 | -0.362 | 0.121
SENP6 C291 (UniProt Q9GZR1) | -0.155 | 0.0221 | -0.621 | -0.0207
SCPEP1 C152 (UniProt Q9HB40) | 0.285 | -0.373 | 0.052 | -0.496
SETD2 C1086 (UniProt Q9BYW2) | -0.0801 | 0.0036 | 0.204 | -0.0285
SERPINH1 C156 | -0.103 | 0.201 | 0.15 | 0.191

Another view of part of the listing above:
Target,log2 mean competition ratio ([1]; 50 µM),log2 mean competition ratio ([1]; 200 µM),log2 mean competition ratio ([2]; 50 µM),log2 mean competition ratio ([2]; 200 µM)
SECISBP2 C291 (UniProt Q96T21),-0.131,0.116,0.114,0.277
SENP5 C326 (UniProt Q96HI0),0.376,0.0774,0.0196,-0.163
SIKE1 C164 (UniProt Q9BRV8),0.106,-0.0563,0.401,0.227
SDHA C89 (UniProt P31040),0.323,0.737,0.00787,0.272
SEC62 C55 (UniProt Q99442),-0.214,-0.246,0.341,-0.0315
SEPHS1 C71 (UniProt P49903),-0.0921,0.0587,-0.315,-0.0151
SERPINB6 C370,0.148,-0.281,0.345,-0.252
SAP30 C184 (UniProt O75446),-0.000212,0.11,-0.162,0.0414
SGF29 C74 (UniProt Q96ES7),-0.265,0.613,0.0383,0.202
SEPTIN6 C432 (UniProt Q14141),0.104,-0.0208,0.287,0.141
SEC31A C644,0.117,-0.553,0.392,-0.406
SAMD1 C383 (UniProt Q6SPF0),0.392,-0.00984,0.132,0.0386
SERINC3 C72 (UniProt Q13530),-0.0986,-0.0056,-0.359,-0.0174
SELENOO C219 (UniProt Q9BVL4),0.159,0.00184,0.0546,-0.14
SEC13 C299 (UniProt P55735),-0.401,-0.294,-0.117,-0.256
SETD2 C849 (UniProt Q9BYW2),-0.591,0.00807,-0.0923,-0.308
SESN2 C8 (UniProt P58004),-0.263,0.241,-0.101,0.0699
SASH1 C720 (UniProt O94885),0.146,-0.153,-0.211,0.0874
SCRN3 C143 (UniProt Q0VDG4),0.313,0.884,0.203,0.949
